We go through three molecules from paper doi:10.1101/2023.12.08.570815.

The target of assay [1] is T1, C-terminal domain of ULK1 (amino acids 827-1050), yeast two-hybrid fusion (UniProt O75385).
T1 sequence: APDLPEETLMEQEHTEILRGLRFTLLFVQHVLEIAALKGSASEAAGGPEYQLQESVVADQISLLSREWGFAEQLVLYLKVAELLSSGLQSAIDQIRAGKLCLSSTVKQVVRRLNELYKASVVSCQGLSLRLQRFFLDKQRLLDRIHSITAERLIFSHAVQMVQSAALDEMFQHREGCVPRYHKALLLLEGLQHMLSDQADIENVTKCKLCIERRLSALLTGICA
Kind of assay: two-hybrid.

Assay [2] concerns the target T2, SHA-tagged BAG2 S31A (human (HEK293T cDNA)) (UniProt O95816).
T2 sequence: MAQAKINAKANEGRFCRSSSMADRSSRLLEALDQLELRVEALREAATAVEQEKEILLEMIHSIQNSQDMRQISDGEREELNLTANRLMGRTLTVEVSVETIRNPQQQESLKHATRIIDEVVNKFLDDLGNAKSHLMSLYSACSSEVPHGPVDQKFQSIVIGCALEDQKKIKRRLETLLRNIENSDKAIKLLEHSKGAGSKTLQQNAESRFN
Kind of assay: co-IP.

The target of assay [3] is T3, SHA-tagged BAG2 S31E (human (HEK293T cDNA)) (UniProt O95816).
T3 sequence: T2 sequence with A31E
Kind of assay: co-IP.

The target in assay [4] is SHA-tagged BAG2 wild type (human (HEK293T cDNA)) (UniProt O95816). Kind of assay: co-IP.
The target of assay [5] is T2, SHA-tagged BAG2 S31A (human (HEK293T cDNA)). Kind of assay: co-IP. This is another data set of the same source.
Assay [6] addresses T3, SHA-tagged BAG2 S31E (human (HEK293T cDNA)). Kind of assay: co-IP. This is another data set of the same source.
Assay [7] concerns the target SHA-tagged BAG2 wild type (human (HEK293T cDNA)) (UniProt O95816). Kind of assay: co-IP. The source holds these as a separate data set.

Where a chain is given by its changes, count along the chain named. Like-named read-outs stand apart in the source and are kept apart here. These are yes or no findings as the source states them, for the method shown. For some of these results: In cells and extracts the contact can be indirect. Some results given as binding are weak or reduced against the parent protein; the word gives no strength. For some of these results: Tags and fused reporters may be left off the sequences shown.

“BAG2, yeast two-hybrid fusion (from UniProt O95816 1-211)”: in assay [1], the binding entry is recorded as “binds”.

For “SQSTM1/p62, endogenous (from UniProt Q13501 1-440)”, the binding entry in assay [2], in assay [3] and in assay [4] was “binds” each time.

B1: chloride ion channel CLCC1, endogenous (protein, UniProt Q96S66 19-551)
chain: HDDDWIDPTDMLNYDAASGTMRKSQAKYGISGEKDVSPDLSCADEISECYHKLDSLTYKIDECEKKKREDYESQSNPVFRRYLNKILIEAGKLGLPDENKGDMHYDAEIILKRETLLEIQKFLNGEDWKPGALDDALSDILINFKFHDFETWKWRFEDSFGVDPYNVLMVLLCLLCIVVLVATELWTYVRWYTQLRRVLIISFLFSLGWNWMYLYKLAFAQHQAEVAKMEPLNNVCAKKMDWTGSIWEWFRSSWTYKDDPCQKYYELLLVNPIWLVPPTKALAVTFTTFVTEPLKHIGKGTGEFIKALMKEIPALLHLPVLIIMALAILSFCYGAGKSVHVLRHIGGPESEPPQALRPRDRRRQEEIDYRPDGGAGDADFHYRGQMGPTEQGPYAKTYEGRREILRERDVDLRFQTGNKSPEVLRAFDVPDAEAREHPTVVPSHKSPVLDTKPKETGGILGEGTPKESSTESSQSAKPVSGQDTSGNTEGSPAAEKAQLKSEAAGSPDQGSTYSPARGVAGPRGQDPVSSPCG
Turning to B1, the binding entry in assay [5], in assay [6] and in assay [7] was “binds” each time.
